According to PubChem BioAssay AID1487 (National Center for Advancing Translational Sciences (NCATS), 2009):
The list shows a part of the results. Shown are side measurements of this screen, not its main read-out; they come without a call. Compounds called inactive in the main read-out are mostly missing here. The note in brackets gives the kind of curve behind each potency; many fits are weak.

Assay: qHTS Assay for Modulators of Lamin A Splicing
Conditions: HeLa LMNA splicing GFP/RFP minigene ratio, 48 h
Outline: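 Read-out is the ratio of GFP to DsRed2 object intensity, acquired by 488 nm laser-scanning cytometry on HeLa lamin A-EGFP minigene reporter cells. Compound incubation 48 hrs at 37 °C in Opti-MEM with 2% FBS; DMSO 0.5% final.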

[1] = measured here: RFP viability control channel
[2] = measured here: GFP splicing reporter channel

Structure (SMILES)	AC50 [1]	AC50 [2]
CCCc1sc(N/N=C/c2ccccn2)nc1-c1ccc(Br)cc1	5.62 µM [rising, full curve]	–
COc1ccc(NS(=O)(=O)c2ccc3[nH]c4c(c3c2)CCCC4)c(OC)c1	31.6 µM [rising, single point]	–
Cc1csc(SCC(=O)c2cc(C)n(Cc3cccs3)c2C)n1	11.2 µM [rising, partial curve]	8.91 µM [rising, partial curve, poor fit]
NC(CSSCC(N)C(=O)O)C(=O)O (configuration not stated)	–	0.0178 µM [rising, full curve, poor fit]
Cc1cccc(C(=O)NCC(c2ccc3c(c2)OCO3)N2CCOCC2)c1 (configuration not stated)	–	0.02 µM [falling, full curve]
CCc1cccc2c3c([nH]c12)C(CC)(CC(=O)O)OCC3 (configuration not stated)	–	0.0501 µM [rising, full curve, poor fit]
CCc1ccc(C2C(C(=O)Nc3ccccc3)=C(C)Nc3nc(SCC(=O)c4ccc(C)cc4)nn32)cc1 (configuration not stated)	–	20 µM [rising, single point]
O=[N+]([O-])c1ccc(Cl)cc1N1CCCC1	35.5 µM [rising, single point]	–
CCSCCc1nnc(NC(=O)Nc2cccc(C(F)(F)F)c2)s1	31.6 µM [rising, single point]	–
O=C(CSc1nccn1Cc1ccccc1)NC1CCCC1	–	0.178 µM [rising, full curve, poor fit]
O=C(NCCc1ccccc1)C(=O)NCC(c1cccnc1)N1CCN(c2ccc(F)cc2)CC1 (configuration not stated)	17.8 µM [falling, partial curve, poor fit]	20 µM [falling, partial curve]
CCC(=O)N1CCc2cc(CNC(=O)Nc3ccc(OC)cc3OC)ccc21	10 µM [falling, partial curve, poor fit]	0.0398 µM [falling, full curve, poor fit]
CNc1nnc(CSc2nc3ccccc3s2)s1	14.1 µM [rising, single point]	–
Cc1cccc(Cn2c(=O)n(CCCC(=O)NCc3ccco3)c(=O)c3ccccc32)c1	35.5 µM [rising, single point]	–
O=C(NCCCn1ccnc1)Nc1ccc(Cl)cc1Cl	10 µM [rising, partial curve]	–
Cc1ccccc1CN1CCc2c(OCC(=O)N3CCCc4ccccc43)cccc2C1=O	2.82 µM [rising, partial curve, poor fit]	–
COc1ccc(C)cc1-n1[nH]nnc1=S	4.47 µM [falling, partial curve]	5.62 µM [falling, single point]
CC(=O)C1=C(C)NC(C)=C(C(C)=O)C1c1ccc(-c2ccccc2Cl)o1	11.2 µM [rising, single point]	–
COC(=O)c1ccccc1NC(=O)CSc1nc(-c2ccco2)cc(C(F)(F)F)n1	5.62 µM [rising, single point]	–

Structure (SMILES)	AC50 [1]	AC50 [2]
O=C(Nc1cccc(-c2nnc(-c3ccccc3)o2)c1)c1ccc(Br)o1	35.5 µM [falling, single point]	35.5 µM [falling, single point]
COc1cccc(/C=N/NC(=O)CN2CC(c3ccccc3)CC2=O)c1O (configuration not stated)	25.1 µM [rising, partial curve]	22.4 µM [rising, single point]
CCN(CC)c1ccc2cc(-c3nc4ccccc4[nH]3)c(=O)oc2c1	1.12 µM [falling, partial curve]	2.24 µM [falling, full curve, poor fit]
Cc1nn(C)cc1/C=N/NC(=S)Nc1ccc(Cl)cc1Cl	6.31 µM [falling, single point]	–
CCn1c(O)c(N=NC(=O)CNC(=O)c2ccco2)c2ccccc21	10 µM [rising, partial curve]	–
C/C=C(/C)C(=O)O[C@@H]1c2c(ccc3ccc(=O)oc23)OC(C)(C)[C@@H]1OC(=O)/C(C)=C\C	35.5 µM [rising, single point]	–
O=C(NNS(=O)(=O)c1ccc(F)cc1)c1sccc1-n1cccc1	25.1 µM [rising, single point]	–
COc1ccc(NC(=O)CSc2nc3[nH]ncc3c(=O)n2-c2ccccc2C)cc1OC	–	8.91 µM [rising, partial curve, poor fit]
COc1ccc(Oc2ncc3nc(-c4cn(C)c5ccccc45)c(=O)n(C4CC4)c3n2)cc1	14.1 µM [falling, partial curve]	17.8 µM [falling, partial curve, poor fit]
COC(=O)c1cc(NC(=O)c2sc3ncn(Cc4cccc(F)c4)c(=O)c3c2C)cc(C(=O)OC)c1	35.5 µM [falling, partial curve, poor fit]	0.891 µM [falling, full curve, poor fit]
CSc1nc(N)c2ncn([C@@H]3O[C@H](COP(=O)(O)OP(=O)(O)O)[C@H](O)[C@H]3O)c2n1	0.00501 µM [falling, full curve, poor fit]	–
CC(=O)c1ccc(NC(=O)Nc2ccc([N+](=O)[O-])cc2)cc1	12.6 µM [rising, single point]	–
CC(=O)Oc1ccc(/C=N/NC(=O)CCSc2ccccc2)cc1	–	35.5 µM [falling, single point]
Cc1ccoc1C(=O)NCCNc1ccc(Cl)cc1[N+](=O)[O-]	–	10 µM [rising, partial curve]
CC(C)n1cc(/C=C2/NC(=O)N(c3cccc(Cl)c3)C2=O)c2ccccc21	20 µM [rising, single point]	–
Cc1ccc(-c2n[nH]c(=O)c3ccccc23)cc1N	20 µM [rising, single point]	22.4 µM [rising, single point]
COC(=O)c1cc(=O)n(-c2ccc(F)cc2)c(=Nc2ccc(F)cc2)s1	0.0251 µM [rising, full curve, poor fit]	–
NS(=O)(=O)c1cc2c(cc1Cl)N[C@@H](C(Cl)Cl)NS2(=O)=O	0.447 µM [rising, full curve]	0.00282 µM [falling, full curve, poor fit]
COC(=O)c1ccc(C#Cc2ccccc2)o1	0.0631 µM [falling, full curve, poor fit]	1.12 µM [falling, full curve]

Structure (SMILES)	AC50 [1]	AC50 [2]
CCOc1cc(N2CCOCC2)c(OCC)cc1NC(=O)Cn1[nH]c(=O)c2ccccc2c1=O	3.98 µM [rising, single point]	4.47 µM [rising, single point]
Cc1ccc(NC(=O)Nc2cccs2)c(Cl)c1	10 µM [rising, partial curve]	3.98 µM [rising, full curve]
Cc1csc(=Nc2cccnc2)n1CC1CCCCC1	31.6 µM [rising, single point]	35.5 µM [rising, single point]
COc1ccccc1N/C(=N/S(=O)(=O)c1ccc(C)cc1)c1ccccc1	–	11.2 µM [rising, single point]
COc1ccc(CNC(=O)CSc2n[nH]c(-c3ccc(OC)cc3)n2)cc1	35.5 µM [rising, single point]	0.708 µM [rising, full curve, poor fit]
CCN(Cc1ccccc1)C(=S)Nc1cc(C(=O)OC)ccc1C(=O)OC	35.5 µM [rising, single point]	20 µM [rising, single point]
O[C@@](CCN1CCCCC1)(c1ccccc1)[C@@H]1C[C@H]2C=C[C@@H]1C2	5.62 µM [rising, partial curve, poor fit]	–
Cc1ccc(N2CCN(S(=O)(=O)c3ccc(F)cc3)CC2)c(C)c1	31.6 µM [rising, single point]	35.5 µM [rising, single point]
COc1ccccc1-n1cnnc1SCC(=O)NC1CCS(=O)(=O)C1 (configuration not stated)	–	0.282 µM [rising, partial curve]
O=C(c1ccco1)N1c2ccccc2Sc2ccccc21	35.5 µM [rising, single point]	–
S=C(Nc1ccc(Cl)cc1)Nc1cccc2cnccc12	25.1 µM [rising, single point]	15.8 µM [rising, single point]
COc1cc(NC(=O)c2cc(Br)cc(C)c2OC)ccc1NC(=O)C(C)C	35.5 µM [rising, single point]	–
COc1ccc2nc(NC(=O)CSC3=NCCS3)sc2c1	20 µM [rising, single point]	20 µM [rising, single point]
Cn1c(NC(=O)C[n+]2cc(-c3ccc(Cl)cc3)n3c2CCC3)cc(=O)n(C)c1=O	31.6 µM [rising, single point]	–
CC(=O)c1c(C(C)=O)c(C)n(Cc2ccc3c(c2)OCO3)c1C	11.2 µM [rising, partial curve]	–
O=C(N/N=C/c1c(-c2ccccc2)[nH]c2ccccc12)c1cccnc1	7.08 µM [rising, full curve]	–
COC(=O)/C=C/c1ccc2c(c1)OCO2	–	1 µM [falling, single point]
CC(C)(C)C(=O)/C=c1\[nH]c(=O)/c(=C\c2ccc(F)cc2)s1	35.5 µM [rising, single point]	35.5 µM [rising, single point]

Single values from the results shown:
COC(=O)/C=C/c1ccc2c(c1)OCO2 | AC50 [2]: 1 µM [falling, single point]
CC(C)(C)C(=O)/C=c1\[nH]c(=O)/c(=C\c2ccc(F)cc2)s1 | AC50 [2]: 35.5 µM [rising, single point]
Cn1c(NC(=O)C[n+]2cc(-c3ccc(Cl)cc3)n3c2CCC3)cc(=O)n(C)c1=O | AC50 [1]: 31.6 µM [rising, single point]
COc1ccccc1N/C(=N/S(=O)(=O)c1ccc(C)cc1)c1ccccc1 | AC50 [2]: 11.2 µM [rising, single point]
COc1ccc(CNC(=O)CSc2n[nH]c(-c3ccc(OC)cc3)n2)cc1 | AC50 [2]: 0.708 µM [rising, full curve, poor fit]
